In the experiment the target is T1, Sin3a-3xFLAG (mouse) (UniProt Q60520).
T1 sequence: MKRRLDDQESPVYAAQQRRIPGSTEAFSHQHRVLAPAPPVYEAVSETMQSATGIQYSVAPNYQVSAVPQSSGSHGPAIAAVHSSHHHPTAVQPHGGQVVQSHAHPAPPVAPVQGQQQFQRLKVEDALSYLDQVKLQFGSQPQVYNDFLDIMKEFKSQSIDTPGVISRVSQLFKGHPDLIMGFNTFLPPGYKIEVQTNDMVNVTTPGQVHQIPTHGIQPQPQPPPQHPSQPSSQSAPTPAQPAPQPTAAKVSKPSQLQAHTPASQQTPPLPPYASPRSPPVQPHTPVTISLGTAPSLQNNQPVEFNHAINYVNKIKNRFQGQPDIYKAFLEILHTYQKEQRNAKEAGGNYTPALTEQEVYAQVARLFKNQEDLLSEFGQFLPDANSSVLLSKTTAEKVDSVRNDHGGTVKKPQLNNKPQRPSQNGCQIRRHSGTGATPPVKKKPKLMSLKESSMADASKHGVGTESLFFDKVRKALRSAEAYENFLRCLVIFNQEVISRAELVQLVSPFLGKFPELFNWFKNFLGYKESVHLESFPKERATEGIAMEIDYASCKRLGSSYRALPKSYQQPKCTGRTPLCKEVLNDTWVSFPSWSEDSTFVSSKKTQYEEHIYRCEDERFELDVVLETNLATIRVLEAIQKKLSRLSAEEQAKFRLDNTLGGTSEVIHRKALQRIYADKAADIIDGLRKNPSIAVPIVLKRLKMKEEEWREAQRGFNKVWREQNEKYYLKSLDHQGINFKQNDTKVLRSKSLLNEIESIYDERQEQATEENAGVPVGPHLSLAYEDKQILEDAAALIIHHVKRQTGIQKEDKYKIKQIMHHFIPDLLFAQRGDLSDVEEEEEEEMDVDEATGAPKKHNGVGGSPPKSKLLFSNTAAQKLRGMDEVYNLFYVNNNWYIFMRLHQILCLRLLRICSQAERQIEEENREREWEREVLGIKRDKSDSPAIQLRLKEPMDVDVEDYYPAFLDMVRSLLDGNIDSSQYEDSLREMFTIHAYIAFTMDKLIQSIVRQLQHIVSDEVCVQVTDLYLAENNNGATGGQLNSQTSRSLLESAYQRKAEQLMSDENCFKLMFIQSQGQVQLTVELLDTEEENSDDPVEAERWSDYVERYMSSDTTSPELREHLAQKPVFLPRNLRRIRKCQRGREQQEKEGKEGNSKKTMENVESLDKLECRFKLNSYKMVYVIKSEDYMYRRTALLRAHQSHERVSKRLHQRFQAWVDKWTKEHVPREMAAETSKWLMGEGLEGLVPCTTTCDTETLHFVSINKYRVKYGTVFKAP
In words: affinity purification with mass spectrometry; anti-FLAG M2 resin, 4 h at 4 °C, with 13-15 mg nuclear extract of E14tg2a ES cells expressing Sin3a-3xFLAG or 3xFLAG alone; IP buffer 25 mM HEPES-KOH pH 7.6, 140 mM KCl, 10% glycerol, 0.1% Igepal CA-630; washes with 250 mM KCl; elution with 3x FLAG peptide; SDS-PAGE and LC-MS/MS; four independent pull downs.

Sequences of proteins named here, by UniProt entry; tags and fusion partners are left off.
UniProt P70288: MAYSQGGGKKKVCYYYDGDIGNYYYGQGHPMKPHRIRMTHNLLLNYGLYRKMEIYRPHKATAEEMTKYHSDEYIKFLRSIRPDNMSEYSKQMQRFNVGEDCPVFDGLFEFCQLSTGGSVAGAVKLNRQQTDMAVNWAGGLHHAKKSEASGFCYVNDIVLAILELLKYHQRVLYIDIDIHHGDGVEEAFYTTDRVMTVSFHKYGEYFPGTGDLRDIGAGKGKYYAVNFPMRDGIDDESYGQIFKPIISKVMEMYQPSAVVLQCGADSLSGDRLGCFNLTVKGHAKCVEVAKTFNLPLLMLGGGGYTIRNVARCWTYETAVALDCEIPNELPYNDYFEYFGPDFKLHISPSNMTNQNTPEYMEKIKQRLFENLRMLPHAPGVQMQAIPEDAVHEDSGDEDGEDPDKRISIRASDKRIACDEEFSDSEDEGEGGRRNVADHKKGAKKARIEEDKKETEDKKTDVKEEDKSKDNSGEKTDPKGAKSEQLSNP
UniProt O09106: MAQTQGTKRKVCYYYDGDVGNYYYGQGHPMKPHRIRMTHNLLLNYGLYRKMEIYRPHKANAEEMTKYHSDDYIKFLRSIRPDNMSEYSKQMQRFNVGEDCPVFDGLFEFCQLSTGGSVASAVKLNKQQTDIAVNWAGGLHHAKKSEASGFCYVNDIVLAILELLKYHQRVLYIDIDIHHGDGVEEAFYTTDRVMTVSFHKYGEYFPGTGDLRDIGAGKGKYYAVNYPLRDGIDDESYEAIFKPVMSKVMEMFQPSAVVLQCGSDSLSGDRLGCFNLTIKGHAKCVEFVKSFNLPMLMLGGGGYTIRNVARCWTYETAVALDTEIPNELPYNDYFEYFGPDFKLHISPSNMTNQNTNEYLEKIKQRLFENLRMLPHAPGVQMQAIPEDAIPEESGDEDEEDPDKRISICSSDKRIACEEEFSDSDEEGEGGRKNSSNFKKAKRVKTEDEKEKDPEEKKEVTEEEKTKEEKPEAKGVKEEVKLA
UniProt Q3UCQ1: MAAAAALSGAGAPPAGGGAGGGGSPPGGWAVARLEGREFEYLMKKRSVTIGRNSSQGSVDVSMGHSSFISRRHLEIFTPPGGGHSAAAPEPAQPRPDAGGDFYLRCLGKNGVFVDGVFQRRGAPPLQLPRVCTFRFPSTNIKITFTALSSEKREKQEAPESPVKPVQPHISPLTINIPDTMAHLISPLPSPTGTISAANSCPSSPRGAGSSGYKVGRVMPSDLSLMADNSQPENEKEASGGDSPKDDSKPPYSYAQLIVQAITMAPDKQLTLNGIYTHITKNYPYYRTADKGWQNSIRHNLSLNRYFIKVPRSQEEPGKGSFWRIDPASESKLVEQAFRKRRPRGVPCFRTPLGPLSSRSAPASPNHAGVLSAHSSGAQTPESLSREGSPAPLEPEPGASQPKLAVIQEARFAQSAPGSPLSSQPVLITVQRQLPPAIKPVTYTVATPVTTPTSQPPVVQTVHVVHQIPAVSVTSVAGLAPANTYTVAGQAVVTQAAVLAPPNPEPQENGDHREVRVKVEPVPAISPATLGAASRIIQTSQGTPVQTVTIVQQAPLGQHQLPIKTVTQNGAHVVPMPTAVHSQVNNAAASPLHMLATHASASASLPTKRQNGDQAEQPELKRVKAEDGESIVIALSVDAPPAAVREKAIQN
UniProt Q3UHR0: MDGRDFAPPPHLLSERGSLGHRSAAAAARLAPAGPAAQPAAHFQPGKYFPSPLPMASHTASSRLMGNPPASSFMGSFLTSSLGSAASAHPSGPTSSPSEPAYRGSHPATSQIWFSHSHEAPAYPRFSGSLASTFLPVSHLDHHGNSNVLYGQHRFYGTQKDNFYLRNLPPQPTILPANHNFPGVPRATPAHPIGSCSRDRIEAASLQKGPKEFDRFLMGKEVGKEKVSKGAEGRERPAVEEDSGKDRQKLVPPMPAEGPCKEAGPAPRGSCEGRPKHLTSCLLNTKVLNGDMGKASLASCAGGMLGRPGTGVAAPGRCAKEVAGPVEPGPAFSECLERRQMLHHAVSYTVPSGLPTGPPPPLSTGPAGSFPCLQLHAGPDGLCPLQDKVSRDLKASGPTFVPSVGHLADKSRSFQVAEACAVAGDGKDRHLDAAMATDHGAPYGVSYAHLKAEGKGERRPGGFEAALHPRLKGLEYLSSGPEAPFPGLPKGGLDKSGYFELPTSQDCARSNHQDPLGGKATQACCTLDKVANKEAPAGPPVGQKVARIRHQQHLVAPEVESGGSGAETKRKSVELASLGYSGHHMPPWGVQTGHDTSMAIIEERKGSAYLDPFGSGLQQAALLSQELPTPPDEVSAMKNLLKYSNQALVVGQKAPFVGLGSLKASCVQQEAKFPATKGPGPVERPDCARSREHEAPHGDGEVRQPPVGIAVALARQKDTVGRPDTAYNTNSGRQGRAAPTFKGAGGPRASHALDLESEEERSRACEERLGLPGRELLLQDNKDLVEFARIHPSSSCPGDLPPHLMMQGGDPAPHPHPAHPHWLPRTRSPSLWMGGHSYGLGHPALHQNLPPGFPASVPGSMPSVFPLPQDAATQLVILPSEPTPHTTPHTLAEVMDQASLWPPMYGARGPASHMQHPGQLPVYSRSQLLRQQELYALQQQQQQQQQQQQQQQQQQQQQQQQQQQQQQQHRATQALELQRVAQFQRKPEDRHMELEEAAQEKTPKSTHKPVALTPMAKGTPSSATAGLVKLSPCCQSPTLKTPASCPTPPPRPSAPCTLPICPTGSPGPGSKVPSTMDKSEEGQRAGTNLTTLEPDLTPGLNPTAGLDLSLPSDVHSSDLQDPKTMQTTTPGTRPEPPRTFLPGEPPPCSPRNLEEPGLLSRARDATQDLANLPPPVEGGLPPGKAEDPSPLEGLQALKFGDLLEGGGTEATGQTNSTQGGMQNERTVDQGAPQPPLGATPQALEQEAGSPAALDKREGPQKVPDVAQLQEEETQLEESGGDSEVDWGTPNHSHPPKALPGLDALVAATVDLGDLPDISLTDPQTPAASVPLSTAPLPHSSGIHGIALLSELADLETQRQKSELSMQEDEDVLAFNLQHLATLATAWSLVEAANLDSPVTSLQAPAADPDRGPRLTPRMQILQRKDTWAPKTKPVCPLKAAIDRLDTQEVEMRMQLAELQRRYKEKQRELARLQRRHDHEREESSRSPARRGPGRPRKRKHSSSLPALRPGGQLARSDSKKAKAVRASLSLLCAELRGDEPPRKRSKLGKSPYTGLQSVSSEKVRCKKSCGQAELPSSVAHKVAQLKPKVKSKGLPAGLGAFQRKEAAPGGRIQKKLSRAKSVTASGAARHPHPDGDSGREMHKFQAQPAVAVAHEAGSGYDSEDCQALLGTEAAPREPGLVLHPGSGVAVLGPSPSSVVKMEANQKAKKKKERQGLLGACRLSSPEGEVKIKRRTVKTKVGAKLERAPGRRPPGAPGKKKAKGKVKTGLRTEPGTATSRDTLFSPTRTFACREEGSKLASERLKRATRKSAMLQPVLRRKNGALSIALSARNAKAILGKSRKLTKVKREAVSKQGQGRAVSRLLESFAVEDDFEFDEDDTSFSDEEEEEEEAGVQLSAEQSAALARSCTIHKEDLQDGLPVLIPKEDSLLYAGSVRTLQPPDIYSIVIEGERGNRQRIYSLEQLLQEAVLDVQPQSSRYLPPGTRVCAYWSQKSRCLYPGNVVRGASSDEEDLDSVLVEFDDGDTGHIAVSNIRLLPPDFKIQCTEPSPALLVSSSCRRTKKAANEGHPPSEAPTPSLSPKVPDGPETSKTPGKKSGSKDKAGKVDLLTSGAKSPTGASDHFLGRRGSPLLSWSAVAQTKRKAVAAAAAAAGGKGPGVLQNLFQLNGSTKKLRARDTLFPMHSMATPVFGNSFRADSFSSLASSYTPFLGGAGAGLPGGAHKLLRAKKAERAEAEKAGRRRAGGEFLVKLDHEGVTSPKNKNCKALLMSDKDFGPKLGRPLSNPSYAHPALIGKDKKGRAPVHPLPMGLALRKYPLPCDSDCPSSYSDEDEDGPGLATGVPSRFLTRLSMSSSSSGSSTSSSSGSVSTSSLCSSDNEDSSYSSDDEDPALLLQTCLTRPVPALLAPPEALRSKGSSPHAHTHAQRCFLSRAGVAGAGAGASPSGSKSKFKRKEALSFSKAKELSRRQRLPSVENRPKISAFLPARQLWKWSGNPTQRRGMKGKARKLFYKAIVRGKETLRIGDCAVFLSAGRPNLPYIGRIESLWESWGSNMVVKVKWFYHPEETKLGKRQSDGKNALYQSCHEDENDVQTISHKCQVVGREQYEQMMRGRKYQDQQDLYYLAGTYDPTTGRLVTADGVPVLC
UniProt P63087: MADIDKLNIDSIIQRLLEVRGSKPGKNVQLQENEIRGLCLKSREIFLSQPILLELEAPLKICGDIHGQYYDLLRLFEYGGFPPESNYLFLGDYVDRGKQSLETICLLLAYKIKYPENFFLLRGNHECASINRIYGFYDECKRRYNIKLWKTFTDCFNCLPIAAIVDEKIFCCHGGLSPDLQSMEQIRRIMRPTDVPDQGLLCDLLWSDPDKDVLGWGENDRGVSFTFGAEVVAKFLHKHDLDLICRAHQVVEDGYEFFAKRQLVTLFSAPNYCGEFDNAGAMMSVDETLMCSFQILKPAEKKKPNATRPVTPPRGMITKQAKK
UniProt P28574: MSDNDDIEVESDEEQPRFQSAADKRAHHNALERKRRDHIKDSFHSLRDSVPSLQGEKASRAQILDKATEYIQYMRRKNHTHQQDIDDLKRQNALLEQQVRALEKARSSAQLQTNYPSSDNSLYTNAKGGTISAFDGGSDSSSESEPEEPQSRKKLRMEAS
UniProt P23198: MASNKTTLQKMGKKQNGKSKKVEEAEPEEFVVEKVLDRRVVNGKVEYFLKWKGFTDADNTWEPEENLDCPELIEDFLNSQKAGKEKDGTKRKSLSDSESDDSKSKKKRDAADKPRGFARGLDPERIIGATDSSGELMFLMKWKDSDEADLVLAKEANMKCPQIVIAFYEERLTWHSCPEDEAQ
UniProt Q9JJZ6: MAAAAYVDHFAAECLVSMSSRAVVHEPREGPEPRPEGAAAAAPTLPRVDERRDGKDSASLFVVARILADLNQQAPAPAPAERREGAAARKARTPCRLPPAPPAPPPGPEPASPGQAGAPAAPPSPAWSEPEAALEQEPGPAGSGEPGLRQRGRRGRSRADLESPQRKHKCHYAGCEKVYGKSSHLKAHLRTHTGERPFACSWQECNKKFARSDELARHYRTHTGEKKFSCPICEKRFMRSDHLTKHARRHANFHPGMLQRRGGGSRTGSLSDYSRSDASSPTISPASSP
UniProt Q8BSN5: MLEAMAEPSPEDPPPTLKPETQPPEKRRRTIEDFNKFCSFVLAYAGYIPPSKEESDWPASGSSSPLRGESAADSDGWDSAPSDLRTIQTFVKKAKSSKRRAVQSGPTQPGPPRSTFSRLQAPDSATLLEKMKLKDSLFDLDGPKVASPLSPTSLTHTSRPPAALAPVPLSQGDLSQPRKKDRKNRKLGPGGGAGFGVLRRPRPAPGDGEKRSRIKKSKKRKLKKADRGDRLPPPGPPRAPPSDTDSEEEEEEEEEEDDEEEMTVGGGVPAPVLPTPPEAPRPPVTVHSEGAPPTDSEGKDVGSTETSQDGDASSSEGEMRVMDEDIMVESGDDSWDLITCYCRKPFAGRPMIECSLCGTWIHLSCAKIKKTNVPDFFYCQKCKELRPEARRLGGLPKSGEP
UniProt O54946: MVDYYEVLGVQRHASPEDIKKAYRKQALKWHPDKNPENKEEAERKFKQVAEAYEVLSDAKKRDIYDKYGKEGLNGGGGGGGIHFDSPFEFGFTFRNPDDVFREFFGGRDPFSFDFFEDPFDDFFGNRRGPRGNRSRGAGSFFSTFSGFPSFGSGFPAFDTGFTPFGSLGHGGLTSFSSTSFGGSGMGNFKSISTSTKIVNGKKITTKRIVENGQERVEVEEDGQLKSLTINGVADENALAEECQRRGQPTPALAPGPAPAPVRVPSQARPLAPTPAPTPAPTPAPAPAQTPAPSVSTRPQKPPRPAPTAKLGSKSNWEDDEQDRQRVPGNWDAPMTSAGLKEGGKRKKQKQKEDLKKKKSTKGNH

Results are given in words; binding and its absence hold for the method and conditions named. Binding seen in cells or lysates may run through a third protein. A yes stands for co-enrichment or nearness to the bait. Other partners may have been found. Sequences can lack the tags named with a protein.

This is an account of results in publication PMC3334623.

Turning to Hdac2 (from UniProt P70288 1-488), the binding entry was “binds”.

For the molecule Hdac1 (from UniProt O09106 1-482), the binding entry is on record as “binds”.

Turning to Foxk2 (from UniProt Q3UCQ1 1-651), the binding entry is given as “binds”.

With Bahcc1 (from UniProt Q3UHR0 1-2643), the binding result is given as “binds”.

With Ppp1cc (from UniProt P63087 1-323), the binding result was “binds”.

As to Max (from UniProt P28574 1-160), the binding entry is reported as “binds”.

With Cbx3 (from UniProt P23198 1-183), the binding entry was “binds”.

Turning to Klf13 (from UniProt Q9JJZ6 1-289), the binding result is “binds”.

As to Phf23 (from UniProt Q8BSN5 1-401), the binding result is recorded as “binds”.

Regarding “DnaJ homolog subfamily B member 6 (from UniProt O54946 1-365)”, the binding entry is “binds”.

B1: Arid4b (protein, UniProt A2CG63 1-1314)
chain: MKALDEPPYLTVGTDVSAKYRGAFCEAKIKTAKRLVKVKVTFRHDSSTVEVQDDHIKGPLKVGAIVEVKNLDGAYQEAVINKLTDASWYTVVFDDGDEKTLRRSSLCLKGERHFAESETLDQLPLTNPEHFGTPVIGKKTNRGRRSNHIPEEESSSSSSDDDEEERKQTDELLGKVVCVDYVSLEKKKAMWFPALVVCPDCSDEIAVKKDNILVRSFKDGKFTSVPRKDVHEITSDTVPKPDAVLKQAFDQALEFHKSRAIPANWKTELKEDSSSSEAEEEEEEEDDEKEKEDNSSEEEEEIEPFPEERENFLQQLYKFMEDRGTPINKRPVLGYRNLNLFKLFRLVHKLGGFDNIESGAVWKQVYQDLGIPVLNSAAGYNVKCAYKKYLYGFEEYCRSANIDFQMALPEKVLNKPCKDCENKEVKVKEESETEIKEVNVEDSKNVMPKEETPAEDESERKENIKPSLGSKKSLLECIPAQSDEEKEAHITKLEENENLEDKDGGRARTEEAFSTEVDGEEEQARSGDETNKEEDEDDEEIEEEEEEDEEEDEDEDDDDNNEEEEFECYPPGMKVQVRYGRGKNQKMYEASIKDSDVEGGEALYLVHYCGWNVRYDEWIKADKIVRPADKNVPKIKHRKKIKNKLDKEKDRDEKYSPKNCKLRRLSKSPFQSNPSPEMVSKLDLADAKNSDTAHIKSIEITSILNGLQASESSAEDSEQEDERCTQDVDNIGKDESKVEHSTHSRNELISKEEQSSPSLLEENKVHTDLVIAKTVSKSPERLRKDMEAISEDTDFEEEDEITKKRKDVKKDTTDKALKPQTKRGKRRYCSADECLQTGSPGKKEDRTKSKEPLCTENSSNSSSDEDEEEKSKAKMTPTKKYNGLEEKRKSLRTTSFYSGFSEVAEKRIKLLNNSDERLQNNRAKDRKDVWSSIQGQWPKKTLKELFSDSDTEAAASPPHPAPDEGAVEESLQTVAEEESCSPIMELEKPLPASVDNKPIEEKPLEVSDRKTEFPSSGSNSVLNTPPTTPESPSSVTITEASQQQSSVTVSVPLPPNQEEVRSIKSETDSTIEVDSVVGELQDLQSEGNSSPAGFDASVSSSSSNQPEPDNPEKACTGQKRVKDTQGVGSSSKKQKRSHKATVVNNKKKGKGTNSSDSEELSAGESVTKTQTIKSVPTGMKTHNSKSPARVQSPGKGGRNGDKDPDLKEPSNRLPKVYKWSFQTSDLENMTSAERISILQEKLQEIRKHYLSLKSEVASIDRRRKRLKKKERESAATSSSSSSPSSSSITAAVMLTLAEPSMSSASQNGMSVECR
Regarding B1, the binding entry is “binds”.

B2: Ing2 (protein, UniProt Q9ESK4 1-281)
chain: MLGQQQQQQLYSSAALLTGERSRLLSCYVQDYLECVESLPHDMQRNVSVLRELDNKYQETLKEIDDVYEKYKKEDDSNQKKRLQQHLQRALINSQELGDEKIQIVTQMLELVENRARQMELHSQCFQDPAESERASDKSKMDSSQPERSSRRPRRQRTSESRDLCHMTNGIDDCDDQPPKEKRSKSAKKKKRSKAKQEREASPVEFAIDPNEPTYCLCNQVSYGEMIGCDNEQCPIEWFHFSCVSLTYKPKGKWYCPKCRGDNEKTMDKSTEKTKKERRAR
Take B2: the binding result is given as “binds”.

B3: Ogt (O-linked N-acetylglucosamine transferase) (protein, UniProt Q8CGY8 1-1046)
chain: MASSVGNVADSTEPTKRMLSFQGLAELAHREYQAGDFEAAERHCMQLWRQEPDNTGVLLLLSSIHFQCRRLDRSAHFSTLAIKQNPLLAEAYSNLGNVYKERGQLQEAIEHYRHALRLKPDFIDGYINLAAALVAAGDMEGAVQAYVSALQYNPDLYCVRSDLGNLLKALGRLEEAKACYLKAIETQPNFAVAWSNLGCVFNAQGEIWLAIHHFEKAVTLDPNFLDAYINLGNVLKEARIFDRAVAAYLRALSLSPNHAVVHGNLACVYYEQGLIDLAIDTYRRAIELQPHFPDAYCNLANALKEKGSVAEAEDCYNTALRLCPTHADSLNNLANIKREQGNIEEAVRLYRKALEVFPEFAAAHSNLASVLQQQGKLQEALMHYKEAIRISPTFADAYSNMGNTLKEMQDVQGALQCYTRAIQINPAFADAHSNLASIHKDSGNIPEAIASYRTALKLKPDFPDAYCNLAHCLQIVCDWTDYDERMKKLVSIVAEQLEKNRLPSVHPHHSMLYPLSHGFRKAIAERHGNLCLDKINVLHKPPYEHPKDLKLSDGRLRVGYVSSDFGNHPTSHLMQSIPGMHNPDKFEVFCYALSPDDGTNFRVKVMAEANHFIDLSQIPCNGKAADRIHQDGIHILVNMNGYTKGARNELFALRPAPIQAMWLGYPGTSGALFMDYIITDQETSPAEVAEQYSEKLAYMPHTFFIGDHANMFPHLKKKAVIDFKSNGHIYDNRIVLNGIDLKAFLDSLPDVKIVKMKCPDGGDNPDSSNTALNMPVIPMNTIAEAVIEMINRGQIQITINGFSISNGLATTQINNKAATGEEVPRTIIVTTRSQYGLPEDAIVYCNFNQLYKIDPSTLQMWANILKRVPNSVLWLLRFPAVGEPNIQQYAQNMGLPQNRIIFSPVAPKEEHVRRGQLADVCLDTPLCNGHTTGMDVLWAGTPMVTMPGETLASRVAASQLTCLGCLELIAKSRQEYEDIAVKLGTDLEYLKKIRGKVWKQRISSPLFNTKQYTMELERLYLQMWEHYAAGNKPDHMIKPVEVTESA
With B3, the binding result is “binds”.

B4: Brms1 (protein, UniProt Q99N20 1-246)
chain: MPIQPSGKETEEMEAEGDSAAEMNGEADESEEERSGSQTESEEESSEMDDEDYERRRSECVSEMLDLEKQFSELKEKLFRERLSQLRLRLEEVGAERAPEYTEPLGGLQQSLKIRIQVAGIYKGFCLDVIRNKYECELQGAKQHLESEKMLLYDTLLGELQERIQRLEEDRQSLDISSEWWDDKLHSRSSSKAGDAMPPSKRKKAPLVSGPYIVYMLQEIDILEDWTAIKKARAAVSPQKRKADGP
Regarding B4, the binding entry was “binds”.

B5: Sap30 (protein, UniProt O88574 1-220)
chain: MNGFTPEEMSRGGDAAAAVAAVVAAAAAAASAGNGNAAGGGAEVPGAGAVSASGPPGAAGPGPGQLCCLREDGERCGRAAGNASFSKRIQKSISQKKVKIELDKSARHLYICDYHKNLIQSVRNRRKRKGSDDDGGDSPVQDIDTPEVDLYQLQVNTLRRYKRHFKLPTRPGLNKAQLVEIVGCHFKSIPVNEKDTLTCFIYSVRNDKNKSDLKADSGVH
With B5, the binding entry is given as “binds”.

B6: Pspc1 (protein, UniProt Q8R326 1-523)
chain: MMLRGNLKQVRIEKNPARLRALESAAGESEPVAAAAMALTLAGEQAPPPAPSEEHPDEELGFTIDIKSFLKPGEKTYTQRCRLFVGNLPTDITEEDFKRLFERYGEPSEVFINRDRGFGFIRLESRTLAEIAKAELDGTILKSRPLRIRFATHGAALTVKNLSPVVSNELLEQAFSQFGPVEKAVVVVDDRGRATGKGFVEFAAKPPARKALERCGDGAFLLTTTPRPVIVEPMEQFDDEDGLPEKLMQKTQQYHKEREQPPRFAQPGTFEFEYASRWKALDEMEKQQREQVDRNIREAKEKLEAEMEAARHEHQLMLMRQDLMRRQEELRRLEELRNQELQKRKQIQLRHEEEHRRREEEMIRHREQEELRRQQEGGFKPNYMENREQEMRMGDMGPRGAINMGDAFSPAPAGTQGPPPMMGMNMNNRGTIPGPPMGPGPAMGPEGAANMGTPMIPDNGAVHNDRFPQGPPSQMGSPMGNRTGSETPQAPMSGVGPVSGGPGGFGRGSQGGNFEGPNKRRRY
For B6, the binding entry was “binds”.

B7: Sap30l (protein, UniProt Q5SQF8 1-182)
chain: MNGFSTEEDSREGPPAAPAAAPGYGQSCCLIADGERCVRPAGNASFSKRVQKSISQKKLKLDIDKSVRHLYICDFHKNFIQSVRNKRKRKASDDGGDSPEHDADIPEVDLFQLQVNTLRRYKRHYKLQTRPGFNKAQLAETVSRHFRNIPVNEKETLAYFIYMVKSNRSRLDQKSEGSKQLE
B7: the binding result is listed as “binds”.
